## Primary screen of a compound library

Protein sequences, listed by entry. Tags and fused reporters are not part of them. Residues count along the entry.
UniProt Q8IDJ8, 1-583: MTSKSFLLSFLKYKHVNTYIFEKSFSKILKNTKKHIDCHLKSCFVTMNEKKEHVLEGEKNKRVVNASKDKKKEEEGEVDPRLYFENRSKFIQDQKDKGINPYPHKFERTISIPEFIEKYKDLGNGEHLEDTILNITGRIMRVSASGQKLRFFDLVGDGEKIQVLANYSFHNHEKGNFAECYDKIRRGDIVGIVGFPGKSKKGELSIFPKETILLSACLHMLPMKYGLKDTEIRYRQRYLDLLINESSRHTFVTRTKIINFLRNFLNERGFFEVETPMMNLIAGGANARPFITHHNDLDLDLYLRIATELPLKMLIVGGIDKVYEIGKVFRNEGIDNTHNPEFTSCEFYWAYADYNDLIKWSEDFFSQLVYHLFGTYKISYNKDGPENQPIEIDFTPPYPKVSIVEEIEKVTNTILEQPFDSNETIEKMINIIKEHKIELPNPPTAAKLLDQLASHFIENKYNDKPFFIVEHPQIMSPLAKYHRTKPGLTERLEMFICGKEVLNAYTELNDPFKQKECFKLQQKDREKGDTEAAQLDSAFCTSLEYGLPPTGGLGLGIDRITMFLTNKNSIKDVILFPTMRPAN
UniProt I6X8D2, whole entry: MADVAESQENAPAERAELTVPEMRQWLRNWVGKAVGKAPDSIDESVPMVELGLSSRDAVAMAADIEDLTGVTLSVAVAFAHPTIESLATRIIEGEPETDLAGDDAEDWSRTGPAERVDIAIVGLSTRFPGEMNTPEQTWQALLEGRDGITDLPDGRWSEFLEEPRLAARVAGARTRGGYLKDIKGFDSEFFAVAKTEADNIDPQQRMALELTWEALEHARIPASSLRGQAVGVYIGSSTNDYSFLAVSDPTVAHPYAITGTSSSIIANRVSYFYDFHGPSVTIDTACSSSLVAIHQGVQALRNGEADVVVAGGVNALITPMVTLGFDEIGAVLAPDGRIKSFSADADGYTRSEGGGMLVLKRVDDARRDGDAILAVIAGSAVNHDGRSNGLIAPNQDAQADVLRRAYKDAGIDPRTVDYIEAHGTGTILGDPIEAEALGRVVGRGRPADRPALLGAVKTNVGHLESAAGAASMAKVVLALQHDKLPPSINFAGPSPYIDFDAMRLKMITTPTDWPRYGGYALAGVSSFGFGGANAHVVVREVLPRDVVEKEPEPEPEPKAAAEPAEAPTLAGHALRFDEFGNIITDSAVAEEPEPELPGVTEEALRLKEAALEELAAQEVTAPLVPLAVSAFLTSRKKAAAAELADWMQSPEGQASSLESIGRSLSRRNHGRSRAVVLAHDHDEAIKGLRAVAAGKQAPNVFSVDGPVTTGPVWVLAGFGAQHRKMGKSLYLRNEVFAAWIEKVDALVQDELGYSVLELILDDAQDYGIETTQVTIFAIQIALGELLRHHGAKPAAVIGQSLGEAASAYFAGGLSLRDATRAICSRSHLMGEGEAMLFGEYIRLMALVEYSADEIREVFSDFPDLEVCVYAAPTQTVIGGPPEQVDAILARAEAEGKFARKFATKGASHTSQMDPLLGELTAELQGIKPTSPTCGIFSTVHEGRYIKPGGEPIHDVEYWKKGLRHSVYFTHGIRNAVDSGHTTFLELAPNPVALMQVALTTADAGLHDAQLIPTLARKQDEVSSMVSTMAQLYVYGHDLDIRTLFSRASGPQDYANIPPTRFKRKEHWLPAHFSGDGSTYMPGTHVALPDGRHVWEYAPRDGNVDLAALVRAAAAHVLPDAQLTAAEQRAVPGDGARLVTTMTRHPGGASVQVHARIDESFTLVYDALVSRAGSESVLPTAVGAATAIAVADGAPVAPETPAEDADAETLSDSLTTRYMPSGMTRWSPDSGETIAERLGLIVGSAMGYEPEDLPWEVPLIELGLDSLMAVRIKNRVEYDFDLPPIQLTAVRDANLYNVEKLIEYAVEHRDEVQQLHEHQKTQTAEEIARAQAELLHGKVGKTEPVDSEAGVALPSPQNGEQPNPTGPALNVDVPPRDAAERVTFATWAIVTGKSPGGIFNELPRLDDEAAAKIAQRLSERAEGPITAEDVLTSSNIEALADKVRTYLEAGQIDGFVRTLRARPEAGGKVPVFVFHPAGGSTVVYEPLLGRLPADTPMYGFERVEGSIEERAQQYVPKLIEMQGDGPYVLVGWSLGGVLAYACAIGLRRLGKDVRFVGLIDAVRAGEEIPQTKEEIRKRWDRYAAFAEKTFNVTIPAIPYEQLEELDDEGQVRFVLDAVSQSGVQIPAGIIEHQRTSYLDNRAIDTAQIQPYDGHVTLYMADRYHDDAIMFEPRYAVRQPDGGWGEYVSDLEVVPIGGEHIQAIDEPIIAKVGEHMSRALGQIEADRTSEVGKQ
UniProt P9WFT3, whole entry: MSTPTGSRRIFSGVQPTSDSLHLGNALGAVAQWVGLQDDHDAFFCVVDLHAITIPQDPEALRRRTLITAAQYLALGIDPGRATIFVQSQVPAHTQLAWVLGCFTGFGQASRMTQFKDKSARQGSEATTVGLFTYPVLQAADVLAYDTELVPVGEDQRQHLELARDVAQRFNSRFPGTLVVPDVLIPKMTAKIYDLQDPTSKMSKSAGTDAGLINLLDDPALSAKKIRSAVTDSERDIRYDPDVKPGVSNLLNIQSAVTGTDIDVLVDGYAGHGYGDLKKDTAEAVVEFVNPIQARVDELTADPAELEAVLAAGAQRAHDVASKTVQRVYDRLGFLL
UniProt Q4DA54, 1-478: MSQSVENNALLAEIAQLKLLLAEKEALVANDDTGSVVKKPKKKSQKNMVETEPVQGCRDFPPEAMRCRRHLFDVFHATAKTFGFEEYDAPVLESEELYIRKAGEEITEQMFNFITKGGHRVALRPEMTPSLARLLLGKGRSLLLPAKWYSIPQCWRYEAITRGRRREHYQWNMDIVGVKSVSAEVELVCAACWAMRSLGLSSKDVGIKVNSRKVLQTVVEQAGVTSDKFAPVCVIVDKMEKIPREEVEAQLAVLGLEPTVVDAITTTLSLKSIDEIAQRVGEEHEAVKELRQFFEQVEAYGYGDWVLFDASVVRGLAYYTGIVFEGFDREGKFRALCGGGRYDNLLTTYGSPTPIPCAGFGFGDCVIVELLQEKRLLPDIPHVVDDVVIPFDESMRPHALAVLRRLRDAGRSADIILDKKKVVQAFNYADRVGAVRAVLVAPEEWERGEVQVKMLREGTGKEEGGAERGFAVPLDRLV

PfKRS1: 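Enzyme assay of the cytosolic lysyl-tRNA synthetase in 384-well plates, read by luminescence. Target: Lysine-tRNA ligase, Plasmodium falciparum 3D7 (UniProt Q8IDJ8). Compounds at 30 µM. Direction is inferred from only a few compounds that gave an IC50; most scored high, so higher reads as stronger inhibition. Of about 69,000 compounds tested this way, about 49 (0.071%) reached 50% or more in at least one test.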
Pks13 thioesterase: 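Enzyme assay of the thioesterase domain of polyketide synthase 13; the read-out is not stated. Target: Polyketide synthase Pks13, Mycobacterium tuberculosis (UniProt I6X8D2). Concentration: 30 µM. Higher reads as stronger inhibition (inferred from which compounds were picked for retests). About 67,000 compounds were tested under these conditions; 0.46% (about 300) showed 50% or more at least once.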
MtTrpRS: 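Enzyme assay of tryptophanyl-tRNA synthetase; the read-out is not stated. Target: Tryptophan-tRNA ligase, Mycobacterium tuberculosis (UniProt P9WFT3). Concentration: 10 µM. Direction is not recorded; retested compounds ran higher, which suggests that high means inhibition. About 65,000 compounds were tested under these conditions; 0.098% (about 64) showed 50% or more at least once.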
TcHisRS: 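Enzyme assay of histidyl-tRNA synthetase; the read-out is not stated. Target: Histidine-tRNA ligase, Trypanosoma cruzi CL Brener (UniProt Q4DA54). Tested at 30 µM. The record gives no direction; compounds that gave an IC50 in retests scored well above the rest, so higher reads as stronger inhibition. Of about 69,000 compounds tested this way, about 31 (0.045%) reached 50% or more in at least one test.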

The filed quantity is “Percent Effect” (%).
The record does not define 0% and 100%; most values in the screen are far below 50% and negative numbers occur (in some assays of this library far below -100).
The compounds are a random part of those screened.

{"compound": "Cc1ccc(N2CCC3(CCN(Cc4csc(C)n4)CC3)CC2)nn1", "PfKRS1": -0.1597, "MtTrpRS": -5.05, "TcHisRS": 3.448}
{"compound": "CC(C)N1CCCC(C(=O)NCCc2csc(-c3ccncc3)n2)C1", "stereo": "stereo not drawn", "PfKRS1": 1.963, "Pks13 thioesterase": -5.654, "MtTrpRS": -0.06456, "TcHisRS": 1.345}
{"compound": "CN1CCc2ccc(NCc3cscn3)cc2C1=O", "PfKRS1": 3.4, "Pks13 thioesterase": -2.184, "MtTrpRS": -1.568, "TcHisRS": 7.059}
{"compound": "Cc1nc(C2CCCN2C(=O)c2csc3c2CCCC3)no1", "stereo": "stereo not drawn", "PfKRS1": -1.766, "Pks13 thioesterase": -10.2, "MtTrpRS": 4.782, "TcHisRS": 2.924}
{"compound": "Cc1ccc(-c2ccnc(NCC(O)c3ccc(O)cc3)n2)c(C)n1", "stereo": "stereo not drawn", "PfKRS1": 12.08, "Pks13 thioesterase": -24.47, "MtTrpRS": 1.25, "TcHisRS": 3.627}
{"compound": "CN(C)CCN(CC1CCCO1)C(=O)Cc1cn2ccccc2n1", "stereo": "stereo not drawn", "PfKRS1": -0.02278, "Pks13 thioesterase": 8.961, "MtTrpRS": -2.667, "TcHisRS": 7.182}
{"compound": "COc1nccnc1N1CCN(Cc2ccc(F)cc2)C(=O)C1", "PfKRS1": 0.9486, "Pks13 thioesterase": -13.24, "MtTrpRS": -2.008, "TcHisRS": 8.911}
{"compound": "CC(NC(=O)NCc1ccccn1)c1ccc2c(c1)CCC(=O)N2", "stereo": "stereo not drawn", "PfKRS1": 0.1798, "Pks13 thioesterase": -10.24, "MtTrpRS": 24.51, "TcHisRS": 2.286}
{"compound": "O=S(=O)(c1ccc(F)cc1)N1CCOC[C@H](Oc2cnccn2)C1", "PfKRS1": -3.517, "Pks13 thioesterase": 16.24, "MtTrpRS": 6.484, "TcHisRS": -4.478}
{"compound": "COCCn1c2c(ccc1=O)CC(NC(=O)c1cscn1)CC2", "stereo": "stereo not drawn", "PfKRS1": 5.569, "Pks13 thioesterase": -23.03, "MtTrpRS": -4.007, "TcHisRS": 6.186}
{"compound": "CC(C)CN1CCS(=O)(=O)[C@@H]2CCN(S(=O)(=O)N(C)C)CC[C@@H]21", "PfKRS1": -0.7467, "Pks13 thioesterase": -30.12, "MtTrpRS": -2.889, "TcHisRS": 5.376}
{"compound": "CCc1nc(C)sc1CNC1CCN(Cc2ccccc2)C1", "stereo": "stereo not drawn", "PfKRS1": -2.229, "Pks13 thioesterase": -39.24, "MtTrpRS": -0.07097, "TcHisRS": 12.64}
{"compound": "O=C1NC(c2ccccc2)=N[C@@]12CC[C@@H]1CN(Cc3ccco3)C[C@@H]12", "PfKRS1": 5.078, "Pks13 thioesterase": -14.04, "MtTrpRS": -7.24, "TcHisRS": -0.5405}
{"compound": "CCc1nc(C)c(CN2CCOC(Cc3ccccc3Cl)C2)[nH]1", "stereo": "stereo not drawn", "PfKRS1": 3.918, "Pks13 thioesterase": -17.91, "MtTrpRS": -0.5747, "TcHisRS": 10.71}
{"compound": "Cc1cc(C)cc(C(C)NCc2nnc(C)s2)c1", "stereo": "stereo not drawn", "PfKRS1": -0.6702, "Pks13 thioesterase": -14.35, "MtTrpRS": -2.614, "TcHisRS": 8.235}
{"compound": "Clc1ccc(OCCCN2CCN(c3cnccn3)CC2)cc1", "PfKRS1": -0.2396, "Pks13 thioesterase": -2.834, "MtTrpRS": 1.247, "TcHisRS": 11.03}
{"compound": "COc1ccccc1Oc1ncccc1CNC(=O)C(O)C(F)(F)F", "stereo": "stereo not drawn", "PfKRS1": 2.342, "Pks13 thioesterase": -20.66, "MtTrpRS": 1.754, "TcHisRS": 5.291}
{"compound": "O=C1NC(c2ccccc2)=N[C@@]12CC[C@@H]1CN(Cc3ccncc3)C[C@@H]12", "PfKRS1": 5.195, "Pks13 thioesterase": -32.41, "MtTrpRS": -6.041, "TcHisRS": 4.478}
{"compound": "Nc1nccc(-c2c[nH]nc2C2CCCCC2)n1", "PfKRS1": 5.85, "Pks13 thioesterase": -18.43, "MtTrpRS": -6.672, "TcHisRS": 4.151}
{"compound": "O=C(NCc1nnc2n1CCC2)N(Cc1ccco1)C1CC1", "PfKRS1": 3.538, "Pks13 thioesterase": -12.59, "MtTrpRS": -0.387, "TcHisRS": 4.167}
{"compound": "Cc1cc(C)n(CC2CCCN2C(=O)CCCc2ccccn2)n1", "stereo": "stereo not drawn", "PfKRS1": -4.839, "Pks13 thioesterase": -4.166, "MtTrpRS": -2.516, "TcHisRS": -0.3802}
{"compound": "Cc1ccc(C(=O)N(Cc2cccnc2)C[C@@H]2CCC(=O)N2)s1", "PfKRS1": 1.193, "Pks13 thioesterase": 17.9, "MtTrpRS": 1.445, "TcHisRS": 5.263}
{"compound": "Cc1ccc(C(=O)N2C[C@@H]3OCCN(CCN4CCCC4)[C@@H]3C2)cn1", "PfKRS1": 4.878, "Pks13 thioesterase": -10.28, "MtTrpRS": 0.959, "TcHisRS": 6.077}
{"compound": "CN(Cc1ccc(F)cc1)C(=O)CN1CCOC(Cn2cncn2)C1", "stereo": "stereo not drawn", "PfKRS1": 9.896, "Pks13 thioesterase": 5.693, "MtTrpRS": -0.3934, "TcHisRS": -10.53}
{"compound": "O=C(Cn1nc(-c2ccc(F)cc2)oc1=O)NCc1ccncc1", "PfKRS1": 0.379, "Pks13 thioesterase": 5.91, "MtTrpRS": -3.076, "TcHisRS": 4.142}
{"compound": "O=C(Nc1cnc(C2CC2)nc1)N1CCCC1", "PfKRS1": -3.703, "Pks13 thioesterase": -1.877, "MtTrpRS": -2.062, "TcHisRS": 3.191}
{"compound": "Cc1cccc2nc(CN3CCC(Cn4ccnn4)CC3)cc(=O)n12", "PfKRS1": 3.753, "Pks13 thioesterase": -9.8, "MtTrpRS": -2.233, "TcHisRS": 4.902}
{"compound": "CCc1nc(CCn2ccc3nc(OC)c(C#N)cc3c2=O)no1", "PfKRS1": 4.803, "Pks13 thioesterase": -39.87, "MtTrpRS": 3.191, "TcHisRS": 0}
{"compound": "O=c1ccc(S(=O)(=O)N2CCCC2)cn1CC1CCCCO1", "stereo": "stereo not drawn", "PfKRS1": 1.434, "Pks13 thioesterase": -7.353, "MtTrpRS": -0.8163, "TcHisRS": 4.464}
{"compound": "CCN(CC)C(=O)Nc1cc2c(cc1SC)OCCO2", "PfKRS1": 1.337, "Pks13 thioesterase": -15.32, "MtTrpRS": 1.876, "TcHisRS": -3.743}
{"compound": "CC(=O)c1c(F)cccc1NCC(O)c1ccc(F)c(F)c1", "stereo": "stereo not drawn", "PfKRS1": -1.058, "Pks13 thioesterase": 22.45, "MtTrpRS": 0.3408, "TcHisRS": 6.098}
{"compound": "Cc1cc(-c2n[nH]c3c2CN(S(=O)(=O)c2ccsc2)CC3)c(C)o1", "PfKRS1": 4.635, "Pks13 thioesterase": 22.8, "MtTrpRS": 1.232, "TcHisRS": 11.9}

For reference, 4 entries once more:

* O=C(Cn1nc(-c2ccc(F)cc2)oc1=O)NCc1ccncc1 | PfKRS1: 0.379%; Pks13 thioesterase: 5.91%; MtTrpRS: -3.076%; TcHisRS: 4.142%
* COc1ccccc1Oc1ncccc1CNC(=O)C(O)C(F)(F)F (stereo not drawn) | PfKRS1: 2.342%; Pks13 thioesterase: -20.66%; MtTrpRS: 1.754%; TcHisRS: 5.291%
* O=c1ccc(S(=O)(=O)N2CCCC2)cn1CC1CCCCO1 (stereo not drawn) | PfKRS1: 1.434%; Pks13 thioesterase: -7.353%; MtTrpRS: -0.8163%; TcHisRS: 4.464%
* CC(=O)c1c(F)cccc1NCC(O)c1ccc(F)c(F)c1 (stereo not drawn) | PfKRS1: -1.058%; Pks13 thioesterase: 22.45%; MtTrpRS: 0.3408%; TcHisRS: 6.098%

The values are deposited in ChEMBL (CHEMBL3988442, “University of Dundee, Small-Polar-MMV Screening Library” (2021)).